From patent publication US20190225966A1, “Treatment for Glaucoma and Other Eye Diseases” (University of North Texas Health Science Center at Forth …, priority 2016, published 2019)
For at least one compound, name, drawing or mass did not settle the structure.

How the values were obtained:
mice = conditions: 0.1% topical ocular; n=8
TM3 cells = assay: Western blot of fibronectin, TGFβ2 and ER stress markers in Dex-treated TM3 cells; format: cell-based, Human; conditions: Dex 48 hours
C57 mice = assay: Mouse model of glucocorticoid-induced ocular hypertension (periocular Dex), IOP; conditions: weekly periocular injections; starting from 1 week of treatment

SMILES: CC(=O)OCC(=O)[C@@]1(O)[C@H](C)C[C@H]2[C@@H]3CCC4=CC(=O)C=C[C@]4(C)[C@@]3(F)[C@@H](O)C[C@@]21C [Dex, dexamethasone acetate]
- IOP versus vehicle treated mice (mice): IOP elevation
- outflow facility versus vehicle treated mice (mice): reduced outflow facility
- precursor and active TGFβ2, fibronectin and ER stress markers (Western blot) (TM3 cells): increases precursor and active TGFβ2, fibronectin, and ER stress markers including GRP78, ATF4 and CHOP
- IOP (C57 mice): elevates IOP significantly
